For 68 compounds, thermal shift dTm results are on record in PubChem BioAssay AID1347422 (Sanford-Burnham Center for Chemical Genomics, 2020).

Chains of the proteins cited; added tags and fusions are not shown. Lines headed by an entry give the natural chain unless they say otherwise; changes in a name come on top.
UniProt O00391: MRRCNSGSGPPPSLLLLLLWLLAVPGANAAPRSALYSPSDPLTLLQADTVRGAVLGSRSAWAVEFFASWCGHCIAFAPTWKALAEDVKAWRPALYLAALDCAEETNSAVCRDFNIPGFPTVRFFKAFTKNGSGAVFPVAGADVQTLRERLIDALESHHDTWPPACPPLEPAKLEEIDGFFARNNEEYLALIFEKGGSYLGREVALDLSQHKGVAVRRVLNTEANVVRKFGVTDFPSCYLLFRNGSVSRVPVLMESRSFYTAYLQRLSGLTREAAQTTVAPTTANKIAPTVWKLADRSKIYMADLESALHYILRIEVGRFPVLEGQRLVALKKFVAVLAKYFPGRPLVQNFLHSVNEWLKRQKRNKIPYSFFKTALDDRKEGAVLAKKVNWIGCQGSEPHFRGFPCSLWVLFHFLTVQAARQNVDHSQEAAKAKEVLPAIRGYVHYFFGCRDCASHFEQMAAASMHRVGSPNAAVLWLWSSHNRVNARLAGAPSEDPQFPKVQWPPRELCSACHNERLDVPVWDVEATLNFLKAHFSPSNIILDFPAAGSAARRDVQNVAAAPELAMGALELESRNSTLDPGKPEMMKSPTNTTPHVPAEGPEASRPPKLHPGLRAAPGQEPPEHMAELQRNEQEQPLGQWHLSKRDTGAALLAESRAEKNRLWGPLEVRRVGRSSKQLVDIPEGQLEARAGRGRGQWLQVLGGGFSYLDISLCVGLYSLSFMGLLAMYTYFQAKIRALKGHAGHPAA

Over roughly 1,000 compounds, “thermal shift dTm” has its median near 0.19; the highest 2% begin near 1.7. The list shows a part of the results. Activity calls are given as the source filed them.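 Rule for the calls: active = mean rise in melting temperature of at least 1 degC over same-plate control wells; inactive = below that, where a call was filed.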

The experiment addresses Sulfhydryl oxidase 1 (Homo sapiens) (UniProt O00391). As to the kind of experiment: ligand-induced melting shift of human QSOX1 – biophysical, protein thermal shift, single concentration, QSOX1 inhibitor project, confirmation (AID 1347422).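 Note: dTm is compound Tm minus mean Tm of DMSO-only wells on that plate.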 The following applies: recombinant hQSOX1 thermal shift, Sypro Orange, at 25 µM, stronger effect = higher value.
Regarding `Cc1cccc(NC(=O)Nc2nc(C)cs2)c1`, the thermal shift dTm is inactive: -0.13 °C.

With `Cc1cc(C)cc(-n2ncc3c2CCCC3NC(=O)CN2CCCCC2=O)c1` (stereo not drawn), the thermal shift dTm came to 0.05 °C. On to `CCc1nnc(NC(=O)c2nnn(-c3ccc(C)cc3)c2N)s1`, for which the thermal shift dTm came out at 0.7 °C. The same measure for `O=C(COC(=O)c1c2c(nc3ccccc13)CCCC2)Nc1cccc(C(F)(F)F)c1`: 0.02 °C; for `CCc1ccc(NC(=O)c2ccc(N(C)S(C)(=O)=O)cc2)cc1`: 0.18 °C; for `CC(C)CCOc1ccc(-c2cc(C(=O)O)c3ccccc3n2)cc1`: 0.33 °C. Take `O=C(NC1CCCCC1)c1cccc(COc2ccc3ccccc3c2)c1`: the thermal shift dTm came out at 0.63 °C. The same measure for `O=C(NCc1ccc(Cl)c(Cl)c1)c1ccc(Br)cc1`: inactive: -0.13 °C; for `N#Cc1cccc(NC(=O)c2cc3ccccc3o2)c1`: 0.32 °C.

For `Cc1cn2cc(-c3cccc(Cl)c3)nc2s1`, the thermal shift dTm was determined as 0.25 °C. Next, `O=C(Nc1ccccc1-c1nc2ccccc2[nH]1)NC1CCCCC1`: 0.67 °C; `O=C(CC(c1ccccc1)c1cc(Br)ccc1O)NC1CCCCC1` (stereo not drawn): 0.11 °C. Next, `CCOc1ccc(C2c3[nH]c4ccccc4c3CCN2C(=O)Cn2cncn2)cc1` (stereo not drawn): 0.18 °C. Consider `O=c1cc(O)c2sc3nc(-c4ccco4)cc(C(F)(F)F)c3c2[nH]1`, for which the thermal shift dTm was 0.53 °C. Next, `Cc1c(C(=O)Nc2sc(C(C)C)cc2C(N)=O)oc2ccccc12`: 0.13 °C; `Cc1[nH]n2c(=O)cc(-c3ccccc3)nc2c1-c1ccc(F)cc1`: active: 1.5 °C. The same measure for `O=C(Nc1nccs1)c1ccccc1OCc1ccccc1`: 0.37 °C; for `CC(C)C(=O)Nc1cccc(C(=O)Nc2cccc(O)c2)c1`: 0.57 °C.

For the compound `S=C(Nc1ccc2nc(-c3ccco3)c(-c3ccco3)nc2c1)N1CCCC1`, the thermal shift dTm is inactive: -0.45 °C.

Take `COc1ccc(-c2cnn3c(N)c(-c4ccccc4)cnc23)cc1`: the thermal shift dTm is 0.25 °C. Turning to `CCCOc1ccc(NC(=O)CSc2nnc(N)s2)cc1`, the thermal shift dTm is inactive: -0.15 °C. Turning to `O=C(Nc1ccc(-c2noc(COc3ccccc3)n2)cc1)c1ccc(F)cc1`, the thermal shift dTm is inactive: -0.09 °C. The same measure for `COC(=O)c1ccc(COC(=O)c2cc(=O)[nH]c3ccccc23)cc1`: 0.63 °C. For `COc1ccc(NC(=O)Nc2ccc(C(C)=O)cc2)c(C)c1`, the thermal shift dTm was active: 2.14 °C. Regarding `CCCc1cc(=O)[nH]c(SCC(=O)Nc2nc(-c3ccccc3)cs2)n1`, the thermal shift dTm is active: 1.07 °C.

For `CC(=O)c1cccc(NC(=O)Nc2cc(C(F)(F)F)ccc2F)c1`, the thermal shift dTm was inactive: -0.7 °C. Next, `CN(C)c1nc(N/N=C/c2ccc(O)cc2)nc(Nc2ccc(F)cc2)n1`: inactive: -0.09 °C; `CCC(C)NC(=O)c1ccc(NC(=O)Nc2ccccc2)cc1` (stereo not drawn): active: 1.25 °C; `Cc1cc(NC(=O)/C=C/c2ccco2)ccc1Br`: 0.54 °C. The same measure for `Cc1nc2c(-c3ccccc3)c[nH]n2c(=O)c1Cl`: 0.18 °C; for `CCCn1c(=O)[nH]c(=O)c2c(-c3cccc4ccccc34)ccnc21`: 0.25 °C; for `Cc1nc(SCc2nc(-c3ccccc3)no2)[nH]c(=O)c1Cc1ccccc1`: 0.11 °C. The same measure for `COc1ccc(CCCC(=O)Nc2ccc(F)cc2)cc1`: 0.15 °C; for `CCc1cc(-c2n[nH]c(C)c2Oc2ccc(Cl)cc2)c(O)cc1OC`: 0.11 °C. Consider `CCOC(=O)c1c(NC(=O)N(CCO)Cc2ccccc2)sc2c1CCC2`, for which the thermal shift dTm came to 0.06 °C. With `COc1ccc(NC(=O)Nc2ccc(F)c(F)c2)c(OC)c1`, the thermal shift dTm came out at 0.47 °C. The same measure for `Clc1ccc(Nc2nc(NCc3ccco3)c3ccccc3n2)cc1`: 0.01 °C; for `Cc1cccc(N2C(=O)N(c3cccc(Cl)c3)C3CS(=O)(=O)CC32)c1C` (stereo not drawn): 0.16 °C; for `CC(=O)Oc1ccc2nc(-c3ccc(Cl)cc3Cl)oc(=O)c2c1`: 0.3 °C. Next, `COc1ccc(C)cc1NC(=O)Nc1ccc(NC(C)=O)cc1`: 0.57 °C; `O=C(Nc1cccc(NC(=O)c2ncn[nH]2)c1)c1cccc(Cl)c1`: active: 1.07 °C. `Cc1nc(N)sc1-c1nnc(Nc2ccccc2)s1`: the thermal shift dTm is active: 2.14 °C. Regarding `Cc1ccnc(NC(=O)c2sc3nc(-c4ccccc4)cn3c2C)c1`, the thermal shift dTm turned out to be 0.69 °C.

Regarding `O=C1OC(c2cccs2)=N/C1=C/c1cc(Br)ccc1OCc1ccccc1F`, the thermal shift dTm came to 0.67 °C. The same measure for `CC(=O)c1ccc(NC(=O)c2ccc(N3C(=O)c4cccnc4C3=O)cc2)cc1`: 0.39 °C; for `COc1ccc(NC(=O)Nc2ccc(N3CCOCC3)cc2)cc1`: active: 1.07 °C. Next, `Cc1ccccc1OCc1nc(-c2cccc(NC(=O)c3ccco3)c2)no1`: 0.57 °C; `CC(=O)Oc1cccc2ccc(/C=C/c3cccc(Cl)c3)nc12`: 0.06 °C; `CCNC(=O)c1cccc(-c2cccc(-c3ccn[nH]3)c2)c1`: 0.04 °C. Next, `CC(=O)Nc1ccc(NC(=O)c2nnn(-c3cccc(Cl)c3)c2N)cc1`: 0.55 °C; `COc1cc(/C=C/c2ccc3ccccc3n2)c(Cl)cc1OC(C)=O`: 0.07 °C.

As for `CC(=O)Nc1cccc(NC(=O)c2cc3c(s2)CCCC3)c1`, the thermal shift dTm was inactive: 0 °C. With `Cc1ccc(O)c(NC(=O)CSc2nc3ccccc3[nH]2)c1`, the thermal shift dTm is 0.28 °C. In the case of `CCOC(=O)C(Cc1c[nH]c2ccccc12)NC(=O)c1ccc(C(C)(C)C)cc1` (stereo not drawn), the thermal shift dTm came to 0.01 °C. The same measure for `O=C(Nc1cccc(Cl)c1)Nc1nnc(-c2ccco2)s1`: 0.2 °C; for `CC(C)N(Cc1ccccc1)C(=O)COc1ccc(Cl)cc1Br`: 0.63 °C. With `COc1ccc(-c2csc(-c3ccc(OC)c(OC)c3)n2)cc1C`, the thermal shift dTm stood at 0.05 °C. With `Cc1ccccc1NC(=S)NCCC(c1ccccc1)c1ccccc1`, the thermal shift dTm is 0.02 °C.

Consider `NC1=NC(=O)/C(=C/c2ccc(-c3cc([N+](=O)[O-])ccc3O)o2)S1`, for which the thermal shift dTm is active: 1.17 °C.

As to `CCCCC1=NN2C(=N)/C(=C/c3ccc(Cl)cc3Cl)C(=O)N=C2S1`, the thermal shift dTm was determined as 0.11 °C. The same measure for `Cc1nonc1CC(=O)N1CCc2ccc(NC(=O)Cc3ccccc3F)cc2C1`: 0.29 °C; for `COc1ccc(/C=C(\NC(=O)c2ccccc2)C(=O)NCCc2c[nH]c3ccccc23)cc1`: inactive: -0.13 °C; for `Cc1ccc(C)c(-n2c(CCC(=O)O)ccc2-c2ccc(Br)cc2)c1`: 0.11 °C. Next, `O=C(Nc1nccs1)c1ccc(-c2ccc(F)c(Cl)c2)o1`: 0.15 °C.

As to `CCC(=O)NC(=S)Nc1ccc(NC(=O)COc2ccccc2)cc1`, the thermal shift dTm stood at 0.11 °C. Next, `COc1cc(/C=N/O)cc(Br)c1OCc1cccc(Cl)c1`: inactive: -0.03 °C. Consider `CCCOc1ccc(C(=O)Nc2cccc(NC(C)=O)c2)cc1`, for which the thermal shift dTm stood at 0.23 °C. With `CCc1ccc(NC(=O)Nc2cc(F)ccc2F)cc1`, the thermal shift dTm is inactive: -15.7 °C.
